The series in a line: Physiological data (blood gases, MABP) before MCA occlusion and after ischemia. Type of series: in vivo, mice. Particulars: for pCO2 after / pH after / pO2 after: 24 hrs after ischemia. Here is the method:
The right femoral artery was cannulated with PE-10 polyethylene tubing for arterial blood pressure measurement (Gould, Oxnard, Calif.) and blood gas determination (Corning 178, Ciba Corning Diag., Medford, Mass.). Rectal temperature was maintained between 36.5-37.5° C. with a homeothermic blanket system (YSI, Yellow Springs, Ohio). […] The investigator was blinded to the treatment group in this protocol.

[1] abbreviates: protocol 1, eNOS mutant, hydralazine, 10 min before MCA occlusion.
Where [2] appears, read: protocol 1, eNOS mutant, hydralazine.
Where [3] appears, read: protocol 2, Wt SV-129, 10 min before MCA occlusion (before first dose).
Setting [4] is: protocol 2, eNOS mutant, 10 min before MCA occlusion (before first dose).

This is an account of results in patent publication US6630347B1, “Endothelial NOS transgenic animals and methods of use” (The General Hospital Corporation, priority 1996, dated 2003).

Counter-ions that a name gives are not always drawn.

Under setting [1], `NNc1nncc2ccccc12` [hydralazine, hydralazine hydrochloride] had a pCO2 before of 43.8 ± 5.9 mmHg and a pO2 before of 148 ± 16 mmHg. Under setting [2], this compound registered a pCO2 after of 47.3 ± 2.9 mmHg, a pH after of 7.30 ± 0.05 and a pO2 after of 139 ± 28 mmHg. The same compound came in with a pH before (protocol 1, eNOS mutant, normotensive group treated with hydralazine, 10 min before MCA occlusion) of 7.35 ± 0.04.
Under setting [3], `NC(=N[N+](=O)[O-])NCCCC(N)C(=O)O` [L-NA, L-nitroarginine] had a pCO2 before of 47.8 ± 3.5 mmHg, a pH before of 7.36 ± 0.04 and a pO2 before of 142 ± 17 mmHg. Moreover, under “protocol 2, Wt SV-129”, the pCO2 after is given as 49.3 ± 6.3 mmHg, the pH after is recorded as 7.35 ± 0.03 and the pO2 after worked out at 158 ± 22 mmHg. Also, under setting [4], the pCO2 before came to 47.6 ± 4.3 mmHg, the pH before is on record as 7.36 ± 0.07 and the pO2 before is 120 ± 38 mmHg. Where the note is “protocol 2, eNOS mutant”, the pCO2 after is reported as 51.0 ± 2.9 mmHg and the pO2 after is on record as 134 ± 35 mmHg. Besides, the pH after (protocol 2, eNOS mutant, 6 mg/kg ip 5 min, 3 and 6 hrs after ischemia) is listed as 7.33 ± 0.05.
